Reference: paper doi:10.1101/2021.02.08.430206 (bioRxiv, 2021)
These are yes or no findings as the source states them, for the method shown. In cells and extracts the contact can be indirect. Some binding calls cover weakened binding; strength is not graded here. Where a sequence is shown, tags or fusion partners need not be part of it.

Biological target: ACKR1-YFP (human) (UniProt Q16570)
Assay: FRET or BRET

binding: binds
B1: ACKR1-YFP (receptor, UniProt Q16570 1-336)
chain: MGNCLHRAELSPSTENSSQLDFEDVWNSSYGVNDSFPDGDYGANLEAAAPCHSCNLLDDSALPFFILTSVLGILASSTVLFMLFRPLFRWQLCPGWPVLAQLAVGSALFSIVVPVLAPGLGSTRSSALCSLGYCVWYGSAFAQALLLGCHASLGHRLGAGQVPGLTLGLTVGIWGVAALLTLPVTLASGASGGLCTLIYSTELKALQATHTVACLAIFVLLPLGLFGAKGLKKALGMGPGPWMNILWAWFIFWWPHGVVLGLDFLVRSKLLLLSTCLAQQALDLLLNLAEALAILHCVATPLLLALFCHQATRTLLPSLPLPEGWSSHLDTLGSKS
